This experiment is described as follows: qHTS Assay for Lipid Storage Modulators in Drosophila S3 Cells.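 On cell number change: cells counted by Cell Tracker Red CMTPX staining in the red channel.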 Conditions: BODIPY lipid droplet fluorescence, 18-24 h; for cell number change: measured here: cell count max response, cells fed with added oleic acid. The essentials:
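Drosophila S3 cells got compounds at several concentrations plus oleic acid (400 uM solution). Laser-scanning cytometry with 488 nm excitation read lipid droplets at 500-530 nm and cells at 575-640 nm. Percent activity was relative to 20 uM Triacsin C.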
A general note: qHTS replaces the single test concentration by a dilution series.

[1] abbreviates: measured here: cell number channel AC50, cells fed with added oleic acid.
Setting [2] is: measured here: lipid fluorescence (Fed channel) AC50, cells fed with added oleic acid.

Each structure is given as a SMILES string. The list shows a part of the results. Further columns of the screen follow, without active or inactive calls. Most of these compounds were active or inconclusive in the main read-out, so they are no random draw. Words in brackets tell the shape of the fitted curve; partial curves, single points and poor fits give uncertain potencies.

In the case of `CC1CN(C2CC(C)(C)NC(C)(C)C2)CCC1=O` (centres undefined), the cell number change is -24.7%. Under setting [1], the AC50 is 0.92 µM [falling, full curve, poor fit]. In addition, under setting [2], the AC50 is 0.92 µM [falling, full curve, poor fit].

In the case of `Cn1c2ccccc2c2cc(/C=C(\NC(=O)c3ccccc3)C(=O)O)ccc21`, the cell number change was -3.79%. Moreover, the AC50 under setting [1] is 6.51 µM [falling, single point]. Moreover, under setting [2], the AC50 is 4.61 µM [falling, partial curve].

Take `Cc1cc2cc(CNC(=S)Nc3ccc(OC(F)(F)F)cc3)ccc2[nH]1`: the cell number change amounted to 8.48%. Moreover, the AC50 under setting [2] is 14.6 µM [rising, partial curve].

With `O=C(N/N=C/c1cccc(Oc2ccccc2)c1)c1cc[n+]([O-])cc1`, the cell number change was 61.2%. Also, under setting [1], the AC50 is 18.4 µM [rising, single point].

Take `CCS(=O)(=O)CCSc1nc2ccccc2o1`: the cell number change was -3.5%. For the same molecule, under setting [2], the AC50 is 0.184 µM [falling, full curve, poor fit].

Regarding `N#CC(C#N)=C(N)CSc1cccc[n+]1[O-]`, the cell number change was -27.8%. Moreover, under setting [1], the AC50 is 0.00461 µM [rising, full curve, poor fit].

For `O=C(NCCCN=C1NS(=O)(=O)c2ccccc21)c1ccccc1Cl`, the cell number change is -25%.

For the molecule `CC(=O)c1cccc([N+](=O)[O-])c1`, the cell number change turned out to be 10.4%. Under setting [1], the AC50 was 0.291 µM [falling, partial curve]. Moreover, the AC50 under setting [2] was 0.291 µM [falling, partial curve].

For `CCOc1ccc(N(CC(=O)NCc2ccc(OC)cc2)C(=O)CCC(=O)Nc2nccs2)cc1`, the cell number change is 94.3%. For the same molecule, the AC50 under setting [1] is 0.058 µM [rising, full curve, poor fit].

For `O=C1C(c2ccncc2)N(CCC2=CCCCC2)C(=O)CN1C1CCCCC1` (centres undefined), the cell number change is 15.1%. Further, the AC50 under setting [2] was 25.9 µM [rising, single point].

As for `CCCC(=O)N(CCc1ccc(OC)cc1)Cc1nc2ccccc2c(=O)[nH]1`, the cell number change amounted to 79.1%. Moreover, the AC50 under setting [1] was 14.6 µM [rising, partial curve]. For the same molecule, the AC50 under setting [2] was 6.51 µM [rising, single point].

In the case of `Cc1ccccc1-c1nc(-c2ccc(NC(=O)c3ccc(Br)o3)cc2)no1`, the cell number change is -12.7%. In addition, the AC50 under setting [2] is 29.1 µM [falling, single point].

For the molecule `Cc1ccc(C)c(NC(=O)CSc2nc(=O)n(CCN3CCOCC3)c3c2CCCC3)c1`, the cell number change was -4.29%. In addition, under setting [2], the half-maximal activity concentration (AC50) was 0.731 µM [rising, single point].

With `CCOc1ccc(NC(=O)COC(=O)c2cc(=O)c3ccccc3o2)cc1`, the cell number change amounted to 4.97%. Also, the AC50 under setting [2] was 29.1 µM [rising, single point].

Regarding `CC(=O)O/N=C/c1c(NCc2ccccc2)nc2c(C)cccn2c1=O`, the cell number change amounted to 25.2%. For the same molecule, the AC50 under setting [1] is 0.92 µM [rising, full curve]. Moreover, the AC50 under setting [2] is 0.00517 µM [rising, full curve, poor fit].

On to `CCOC(=O)c1ccc(S(=O)(=O)N2CCNCC2)cc1`, for which the cell number change is -54.1%. For the same molecule, the AC50 under setting [1] is 0.92 µM [falling, full curve]. Further, the AC50 under setting [2] is 29.1 µM [falling, single point].

Regarding `COc1cccc2cc(-c3cc(=O)oc4ccc(OCC(C)=O)cc34)oc12`, the cell number change is -12.2%. Also, the AC50 under setting [2] was 11.6 µM [falling, partial curve].

Consider `CCOc1ccc(CN(C)C(=O)c2ccc(NS(=O)(=O)c3ccc4[nH]c(=O)[nH]c4c3)cc2)cc1`, for which the cell number change is -14.9%. Under setting [2], the AC50 is 0.092 µM [falling, full curve, poor fit].

On to `Cc1ccc(NC(=O)COc2ccccc2)cc1Cl`, for which the cell number change was -14.9%. The AC50 under setting [2] is 29.1 µM [falling, single point].

For `COc1ccc(-c2cc(C(F)(F)F)c(C#N)c(SCC(=O)Nc3ccccc3C#N)n2)cc1`, the cell number change was -10.7%. For the same molecule, the AC50 under setting [2] was 0.92 µM [rising, full curve, poor fit].

For the molecule `Cc1cc(C)nc(NC2=NCCN2C(=O)NC2CCCCC2)n1`, the cell number change worked out at 18.5%. Moreover, under setting [2], the AC50 is 0.366 µM [rising, partial curve, poor fit].

For `CCOc1ccc(N(CC(=O)Nc2ccccc2)S(C)(=O)=O)cc1`, the cell number change is 4.12%. Also, under setting [1], the AC50 is 0.517 µM [falling, full curve].

With `Cc1ccc(NC(=O)NN(C)c2c(Cl)c(Cl)nn2C)cc1`, under setting [1], the AC50 is 0.651 µM [rising, single point].

As for `O=C(O)CCC(=O)N1CCN(c2nc(-c3ccccc3)c3cc(Br)ccc3n2)CC1`, the cell number change is 19.9%. Further, the AC50 under setting [2] was 6.51 µM [rising, single point].

For `CCn1c(SCC(=O)Nc2c(C)n(C)n(-c3ccccc3)c2=O)nnc1-c1cccc(C)c1`, the cell number change was 3.5%. Further, the AC50 under setting [2] was 0.00461 µM [rising, full curve, poor fit].

In the case of `CC1(C)CC(=O)C2=C(C1)NC(SCC(N)=O)=C(C#N)C21CCCCC1`, the cell number change stood at 36.3%. Moreover, the AC50 under setting [1] was 29.1 µM [rising, single point].

Consider `O=C(COC(=O)c1ccccc1NC(=O)c1ccco1)Nc1ncc(Cl)cc1Cl`, for which the AC50 by setting is: under setting [1], 1.46 µM [rising, partial curve]; under setting [2], 0.58 µM [rising, partial curve, poor fit].

On to `Cc1ccc(CNC(=O)COC(=O)CCC(=O)c2cccs2)cc1`, for which the cell number change was found to be 3.96%.

Consider `CCOC(=O)c1sc(C)c2c1NC(C)(c1cccs1)NC2=O` (centres undefined), for which the cell number change is 60.6%. For the same molecule, the AC50 under setting [1] was 2.06 µM [rising, full curve]. Moreover, under setting [2], the AC50 is 3.66 µM [rising, full curve].

`O=C1CSC(c2ccccc2[N+](=O)[O-])N1c1ccc(O)cc1` (centres undefined): the cell number change is -10.9%. Moreover, the half-maximal activity concentration (AC50) under setting [2] is 0.731 µM [falling, full curve, poor fit].

For the molecule `Cc1ccc(CNC(=O)CSCC(=O)O)cc1`, the cell number change was determined as 11.5%. Under setting [2], the AC50 was 29.1 µM [falling, single point].

Consider `Cc1ccc(N2C(=O)C3C4C=CC(CNC(=S)N5CCN(c6ccccn6)CC5)(O4)C3C2=O)cc1` (centres undefined), for which the cell number change is 0.753%. The AC50 under setting [2] is 4.61 µM [rising, partial curve, poor fit].

Turning to `CCn1nc(NS(=O)(=O)c2ccc(NC(C)=O)cc2)c2cc3cccc(C)c3nc21`, the cell number change was -24.5%.

Take `CN1C(=O)CSc2ccc(NC(=O)N3CCOCC3)cc21`: the cell number change was -2.72%. Also, the AC50 under setting [1] was 0.231 µM [falling, full curve, poor fit]. The AC50 under setting [2] was 14.6 µM [rising, single point].

`CC1CCCN(S(=O)(=O)c2ccc(C(=O)Nc3nnc(-c4ccccc4Cl)o3)cc2)C1` (centres undefined): the AC50 under setting [2] was 16.4 µM [rising, single point].

With `CCCCOc1ccc(C(=O)NCc2ccccn2)cc1`, under setting [2], the AC50 is 0.731 µM [falling, full curve].

In the case of `O=C(CN1C(=O)S/C(=C/c2cccs2)C1=O)N1CCCC1`, the cell number change was 1.55%.

With `Cc1oc(S(=O)(=O)N(C)C)cc1C(=O)Nc1ccc(F)cc1`, the cell number change was -44%. The AC50 under setting [1] is 20.6 µM [falling, single point]. Moreover, the AC50 under setting [2] was 29.1 µM [falling, single point].

Consider `Cc1cc(C(C)(C)C)ccc1OCCOCCN1CCCC1`, for which the cell number change was -7.77%. The AC50 under setting [2] was 20.6 µM [falling, partial curve].

With `CNC(=S)NCCc1ccc(OC)cc1`, the cell number change was 14%. For the same molecule, the AC50 under setting [1] is 6.51 µM [rising, single point].

With `O=C(N/N=C/c1ccc(C(=O)O)cc1)C(=O)N1CCCCCC1`, the cell number change came to 16.1%.

As for `COc1ccc(CSc2nnnn2C)cc1[N+](=O)[O-]`, the cell number change came to 17.9%.

As for `COc1ccc(OCCOC(=O)c2cccs2)cc1`, the cell number change is -32.3%. For the same molecule, the AC50 under setting [2] is 0.326 µM [falling, full curve].

In the case of `CCSc1cc(N2CCCC2)nc(-c2ccc(Cl)cc2)n1`, the cell number change is -32.1%. The AC50 under setting [1] was 3.66 µM [falling, single point].

Turning to `Clc1ccc(Cn2cc(/C=N/n3cnnc3)c3ccccc32)cc1`, the cell number change is -88.8%. For the same molecule, the AC50 under setting [1] was 16.4 µM [falling, partial curve]. The AC50 under setting [2] is 3.66 µM [rising, partial curve, poor fit].

Regarding `Cc1csc(=O)n1CC(=O)OCC(=O)Nc1ccccc1C(C)C`, the cell number change is -9.2%. For the same molecule, the AC50 under setting [2] is 13 µM [falling, partial curve, poor fit].

With `CCOc1cc(NS(=O)(=O)c2ccc(NC(C)=O)cc2)c(OCC)cc1NC(=O)C(C)C`, the cell number change was -10.1%. Besides, the AC50 under setting [2] was 2.31 µM [rising, partial curve].

`Cc1ccc(CSC2=NCCN2C(=O)C(C)Oc2ccccc2)cc1` (centres undefined): the cell number change was determined as 6.73%.

For `Cc1cc(C)n(CCc2nc(-c3ccco3)cs2)n1`, the AC50 under setting [1] was 0.206 µM [rising, full curve].

For `O=C(COC(=O)c1cc2ccccc2cc1O)Nc1cccnc1Cl`, the cell number change was -40.5%. Also, the AC50 under setting [1] is 29.1 µM [falling, single point]. In addition, the AC50 under setting [2] was 7.31 µM [rising, partial curve, poor fit].

Turning to `Cc1ccc(/C=N/NC(=O)c2ccc3nc[nH]c3c2)o1`, the cell number change is -4.62%. The AC50 under setting [2] is 0.00461 µM [falling, full curve, poor fit].

As to `CCCCn1c(N)c(N(CCC(C)C)C(=O)c2ccccc2-n2cnnn2)c(=O)[nH]c1=O`, the cell number change turned out to be 6.43%.

With `CCN(CC)CCNC(=O)C(=O)NCC1OCCN1S(=O)(=O)c1ccc2c(c1)OCCO2` (centres undefined), the cell number change was -69.6%. Also, the AC50 under setting [1] is 29.1 µM [falling, single point]. Besides, the AC50 under setting [2] is 29.1 µM [falling, partial curve, poor fit].

Consider `COc1ccc2nc(SCC(=O)NCCc3ccccc3)[nH]c2c1`, for which the cell number change was -2.87%. In addition, the AC50 under setting [2] is 13 µM [falling, partial curve, poor fit].

For `CCCC(=O)Nc1cc(=O)n(C)c(=O)n1C`, the cell number change was determined as 12.4%.

As for `O=C(CCCOc1ccc(Cl)cc1Cl)N1CCN(c2ccccn2)CC1`, the cell number change is -18.8%. The AC50 under setting [2] was 0.13 µM [rising, full curve, poor fit].

Turning to `COC(=O)c1sccc1NS(=O)(=O)c1ccc(OC)cc1`, the cell number change turned out to be 24.5%. Under setting [1], the AC50 was 0.00411 µM [rising, full curve, poor fit].

Consider `O=C1c2ccccc2C(Nc2ccc(S(=O)(=O)N3CCCCCC3)cc2)N1c1ccccn1` (centres undefined), for which the cell number change was -35.9%. Moreover, under setting [1], the AC50 was 29.1 µM [falling, single point]. Besides, the AC50 under setting [2] was 2.31 µM [rising, single point].

In the case of `O=C(NC(c1ccccc1)c1ccccc1)c1ccc(=O)[nH]n1`, the cell number change is -22.1%. Further, under setting [1], the AC50 is 4.11 µM [falling, full curve, poor fit]. Also, the AC50 under setting [2] was 3.66 µM [falling, single point].

One may read the AC50 as the midpoint of the concentration-response curve, whichever way the signal moves.

The values are drawn from PubChem BioAssay AID2685 (National Center for Advancing Translational Sciences (NCATS), 2010).
